Results: paper PMC9070665
These are yes or no findings as the source states them, for the method shown. In cells and extracts the contact can be indirect. A yes stands for co-enrichment or nearness to the bait. Other partners may have been found.

The chains behind the UniProt entries cited, without tags or fusion partners.
UniProt Q96S21: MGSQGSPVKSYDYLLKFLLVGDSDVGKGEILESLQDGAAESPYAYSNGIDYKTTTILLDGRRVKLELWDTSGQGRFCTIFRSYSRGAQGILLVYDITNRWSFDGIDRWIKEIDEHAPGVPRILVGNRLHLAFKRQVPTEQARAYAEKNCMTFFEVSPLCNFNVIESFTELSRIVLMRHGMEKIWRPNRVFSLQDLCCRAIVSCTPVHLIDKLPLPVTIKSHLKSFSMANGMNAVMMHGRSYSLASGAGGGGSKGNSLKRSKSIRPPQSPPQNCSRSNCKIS
UniProt Q93034: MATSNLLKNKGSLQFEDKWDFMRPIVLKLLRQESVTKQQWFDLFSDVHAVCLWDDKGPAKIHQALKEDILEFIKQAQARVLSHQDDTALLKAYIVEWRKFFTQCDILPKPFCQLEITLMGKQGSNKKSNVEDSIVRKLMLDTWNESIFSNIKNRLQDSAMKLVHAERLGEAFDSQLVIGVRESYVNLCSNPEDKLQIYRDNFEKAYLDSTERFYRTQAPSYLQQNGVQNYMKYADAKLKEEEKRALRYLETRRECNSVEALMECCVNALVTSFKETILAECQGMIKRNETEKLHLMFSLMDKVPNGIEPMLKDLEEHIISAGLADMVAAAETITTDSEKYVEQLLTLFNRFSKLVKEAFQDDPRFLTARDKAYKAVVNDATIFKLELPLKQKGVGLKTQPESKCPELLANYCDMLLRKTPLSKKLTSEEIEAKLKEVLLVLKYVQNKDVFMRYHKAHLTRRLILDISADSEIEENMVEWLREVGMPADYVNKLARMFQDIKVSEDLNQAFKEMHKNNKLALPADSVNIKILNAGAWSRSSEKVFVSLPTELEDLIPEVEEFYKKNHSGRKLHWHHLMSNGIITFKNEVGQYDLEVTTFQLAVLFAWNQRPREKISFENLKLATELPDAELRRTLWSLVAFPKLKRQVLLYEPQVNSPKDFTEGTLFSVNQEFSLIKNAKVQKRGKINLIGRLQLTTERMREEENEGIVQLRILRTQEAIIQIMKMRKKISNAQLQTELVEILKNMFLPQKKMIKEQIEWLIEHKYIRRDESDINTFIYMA
UniProt Q15370: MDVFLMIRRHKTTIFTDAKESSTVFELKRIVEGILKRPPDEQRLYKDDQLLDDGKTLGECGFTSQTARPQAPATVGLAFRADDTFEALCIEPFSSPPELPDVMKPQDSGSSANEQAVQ
UniProt P62140: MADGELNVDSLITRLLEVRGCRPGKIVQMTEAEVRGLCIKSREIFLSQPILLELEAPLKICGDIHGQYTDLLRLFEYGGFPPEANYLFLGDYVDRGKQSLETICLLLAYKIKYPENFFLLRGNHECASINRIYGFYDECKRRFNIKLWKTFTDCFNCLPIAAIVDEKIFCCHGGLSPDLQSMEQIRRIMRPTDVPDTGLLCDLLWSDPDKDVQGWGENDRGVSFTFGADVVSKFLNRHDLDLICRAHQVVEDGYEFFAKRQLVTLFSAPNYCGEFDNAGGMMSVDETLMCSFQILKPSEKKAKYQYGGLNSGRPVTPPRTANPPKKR
UniProt P67775: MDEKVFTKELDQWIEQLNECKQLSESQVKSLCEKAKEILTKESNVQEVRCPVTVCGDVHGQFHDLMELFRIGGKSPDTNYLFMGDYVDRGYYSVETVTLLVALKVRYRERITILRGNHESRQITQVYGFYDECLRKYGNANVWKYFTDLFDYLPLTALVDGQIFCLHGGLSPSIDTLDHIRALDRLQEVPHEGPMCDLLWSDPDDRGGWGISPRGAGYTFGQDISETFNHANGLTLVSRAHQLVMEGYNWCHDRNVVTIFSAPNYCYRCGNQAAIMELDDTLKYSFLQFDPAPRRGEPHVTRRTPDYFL
UniProt Q9UBF6: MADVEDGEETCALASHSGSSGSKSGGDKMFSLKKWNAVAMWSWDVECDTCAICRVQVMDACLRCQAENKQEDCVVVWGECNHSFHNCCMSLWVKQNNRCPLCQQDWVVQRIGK

B1: catalytic PP6 subunit (PP6c) (enzyme, UniProt O00743 1-305)
chain: MAPLDLDKYVEIARLCKYLPENDLKRLCDYVCDLLLEESNVQPVSTPVTVCGDIHGQFYDLCELFRTGGQVPDTNYIFMGDFVDRGYYSLETFTYLLALKAKWPDRITLLRGNHESRQITQVYGFYDECQTKYGNANAWRYCTKVFDMLTVAALIDEQILCVHGGLSPDIKTLDQIRTIERNQEIPHKGAFCDLVWSDPEDVDTWAISPRGAGWLFGAKVTNEFVHINNLKLICRAHQLVHEGYKFMFDEKLVTVWSAPNYCYRCGNIASIMVFKDVNTREPKLFRAVPDSERVIPPRTTTPYFL
B2: PP6R1 (protein, UniProt Q9UPN7 1-881)
chain: MFWKFDLHTSSHLDTLLEREDLSLPELLDEEDVLQECKVVNRKLLDFLLQPPHLQAMVAWVTQEPPDSGEERLRYKYPSVACEILTSDVPQINDALGADESLLNRLYGFLQSTGSLNPLLASFFSKVMGILINRKTDQLVSFLRKKDDFVDLLLQHIGTSAIMDLLLRLLTCVERPQLRQDVVNWLNEEKIVQRLIEQIHPSKDENQHSNASQSLCDIIRLSREQMIQVQDSPEPDQLLATLEKQETIEQLLSNMFEGEQSQSVIVSGIQVLLTLLEPRRPRSESVTVNSFFSSVDGQLELLAQGALESTVSSVGALHALRPRLSCFHQLLLEPPKLEPLQMTWGMLAPPLGNTRLHVVKLLASALSANDAALTHELLALDVPNTMLDLFFHYVFNNFLHAQVEGCVSTMLSLGPPPDSSPETPIQNPVVKHLLQQCRLVERILTSWEENDRVQCAGGPRKGYMGHLTRVAGALVQNTEKGPNAEQLRQLLKELPSEQQEQWEAFVSGPLAETNKKNMVDLVNTHHLHSSSDDEDDRLKEFNFPEEAVLQQAFMDFQMQRMTSAFIDHFGFNDEEFGEQEESVNAPFDKTANITFSLNADDENPNANLLEICYKDRIQQFDDDEEEEDEEEAQGSGESDGEDGAWQGSQLARGARLGQPPGVRSGGSTDSEDEEEEDEEEEEDEEGIGCAARGGATPLSYPSPGPQPPGPSWTATFDPVPTDAPTSPRVSGEEELHTGPPAPQGPLSVPQGLPTQSLASPPARDALQLRSQDPTPPSAPQEATEGSKVTEPSAPCQALVSIGDLQATFHGIRSAPSSSDSATRDPSTSVPASGAHQPPQTTEGEKSPEPLGLPQSQSAQALTPPPIPNGSAPEGPASPGSQ
B3: PPM1G (enzyme, UniProt O15355 1-546)
chain: MGAYLSQPNTVKCSGDGVGAPRLPLPYGFSAMQGWRVSMEDAHNCIPELDSETAMFSVYDGHGGEEVALYCAKYLPDIIKDQKAYKEGKLQKALEDAFLAIDAKLTTEEVIKELAQIAGRPTEDEDEKEKVADEDDVDNEEAALLHEEATMTIEELLTRYGQNCHKGPPHSKSGGGTGEEPGSQGLNGEAGPEDSTRETPSQENGPTAKAYTGFSSNSERGTEAGQVGEPGIPTGEAGPSCSSASDKLPRVAKSKFFEDSEDESDEAEEEEEDSEECSEEEDGYSSEEAENEEDEDDTEEAEEDDEEEEEEMMVPGMEGKEEPGSDSGTTAVVALIRGKQLIVANAGDSRCVVSEAGKALDMSYDHKPEDEVELARIKNAGGKVTMDGRVNGGLNLSRAIGDHFYKRNKNLPPEEQMISALPDIKVLTLTDDHEFMVIACDGIWNVMSSQEVVDFIQSKISQRDENGELRLLSSIVEELLDQCLAPDTSGDGTGCDNMTCIIICFKPRNTAELQPESGKRKLEEVLSTEGAEENGNSDKKKKAKRD
B4: ankyrin repeat domain 28 (ANKRD28) (protein, UniProt O15084 1-1053)
chain: MAFLKLRDQPSLVQAIFNGDPDEVRALIFKKEDVNFQDNEKRTPLHAAAYLGDAEIIELLILSGARVNAKDSKWLTPLHRAVASCSEEAVQVLLKHSADVNARDKNWQTPLHIAAANKAVKCAEALVPLLSNVNVSDRAGRTALHHAAFSGHGEMVKLLLSRGANINAFDKKDRRAIHWAAYMGHIEVVKLLVSHGAEVTCKDKKSYTPLHAAASSGMISVVKYLLDLGVDMNEPNAYGNTPLHVACYNGQDVVVNELIDCGAIVNQKNEKGFTPLHFAAASTHGALCLELLVGNGADVNMKSKDGKTPLHMTALHGRFSRSQTIIQSGAVIDCEDKNGNTPLHIAARYGHELLINTLITSGADTAKRGIHGMFPLHLAALSGFSDCCRKLLSSGFDIDTPDDFGRTCLHAAAAGGNLECLNLLLNTGADFNKKDKFGRSPLHYAAANCNYQCLFALVGSGASVNDLDERGCTPLHYAATSDTDGKCLEYLLRNDANPGIRDKQGYNAVHYSAAYGHRLCLQLIASETPLDVLMETSGTDMLSDSDNRATISPLHLAAYHGHHQALEVLVQSLLDLDVRNSSGRTPLDLAAFKGHVECVDVLINQGASILVKDYILKRTPIHAAATNGHSECLRLLIGNAEPQNAVDIQDGNGQTPLMLSVLNGHTDCVYSLLNKGANVDAKDKWGRTALHRGAVTGHEECVDALLQHGAKCLLRDSRGRTPIHLSAACGHIGVLGALLQSAASMDANPATADNHGYTALHWACYNGHETCVELLLEQEVFQKTEGNAFSPLHCAVINDNEGAAEMLIDTLGASIVNATDSKGRTPLHAAAFTDHVECLQLLLSHNAQVNSVDSTGKTPLMMAAENGQTNTVEMLVSSASAELTLQDNSKNTALHLACSKGHETSALLILEKITDRNLINATNAALQTPLHVAARNGLTMVVQELLGKGASVLAVDENGYTPALACAPNKDVADCLALILATMMPVSSSSPLSSLTFNAINRYTNTSKTVSFEALPIMRNEPSSYCSFNNIGGEQEYLYTDVDELNDSDSETY
B5: ANKRD52 (protein, UniProt Q8NB46 1-1076)
chain: MGILSITDQPPLVQAIFSRDVEEVRSLLSQKENINVLDQERRTPLHAAAYVGDVPILQLLLMSGANVNAKDTLWLTPLHRAAASRNEKVLGLLLAHSADVNARDKLWQTPLHVAAANRATKCAEALAPLLSSLNVADRSGRSALHHAVHSGHLETVNLLLNKGASLNVCDKKERQPLHWAAFLGHLEVLKLLVARGADLGCKDRKGYGLLHTAAASGQIEVVKYLLRMGAEIDEPNAFGNTALHIACYLGQDAVAIELVNAGANVNQPNDKGFTPLHVAAVSTNGALCLELLVNNGADVNYQSKEGKSPLHMAAIHGRFTRSQILIQNGSEIDCADKFGNTPLHVAARYGHELLISTLMTNGADTARRGIHDMFPLHLAVLFGFSDCCRKLLSSGQLYSIVSSLSNEHVLSAGFDINTPDNLGRTCLHAAASGGNVECLNLLLSSGADLRRRDKFGRTPLHYAAANGSYQCAVTLVTAGAGVNEADCKGCSPLHYAAASDTYRRAEPHTPSSHDAEEDEPLKESRRKEAFFCLEFLLDNGADPSLRDRQGYTAVHYAAAYGNRQNLELLLEMSFNCLEDVESTIPVSPLHLAAYNGHCEALKTLAETLVNLDVRDHKGRTALFLATERGSTECVEVLTAHGASALIKERKRKWTPLHAAAASGHTDSLHLLIDSGERADITDVMDAYGQTPLMLAIMNGHVDCVHLLLEKGSTADAADLRGRTALHRGAVTGCEDCLAALLDHDAFVLCRDFKGRTPIHLASACGHTAVLRTLLQAALSTDPLDAGVDYSGYSPMHWASYTGHEDCLELLLEHSPFSYLEGNPFTPLHCAVINNQDSTTEMLLGALGAKIVNSRDAKGRTPLHAAAFADNVSGLRMLLQHQAEVNATDHTGRTALMTAAENGQTAAVEFLLYRGKADLTVLDENKNTALHLACSKGHEKCALMILAETQDLGLINATNSALQMPLHIAARNGLASVVQALLSHGATVLAVDEEGHTPALACAPNKDVADCLALILSTMKPFPPKDAVSPFSFSLLKNCSIAAAKTVGGCGALPHGASCPYSQERPGAIGLDGCYSE

target: FLAG-Rab40c (human) (UniProt Q96S21); assay: affinity purification with mass spectrometry; anti-FLAG antibody cross-linked to Protein G-Sepharose beads (or control mouse IgG beads) incubated with Triton X-100 lysates (PBS, 1% Triton X-100, 10 mM PMSF) of MDA-MB-231 cells stably expressing FLAG-Rab40c or FLAG-Rab40c-4A; PBS wash; elution with 1% SDS; tandem mass spectrometry

binding, binds:
Cullin5 (from UniProt Q93034 1-780)
Elongin B (from UniProt Q15370 1-118)
PP1CB (from UniProt P62140 1-327) (enzyme)
PP2CA (from UniProt P67775 1-309) (enzyme)
Rbx2 (from UniProt Q9UBF6 1-113)
B1
B2
B3
B4
B5
